In publication PMC10706245:
Results are given in words; binding and its absence hold for the method and conditions named. In cells and extracts the contact can be indirect. Some binding calls cover weakened binding; strength is not graded here.

Chains of the proteins cited; added tags and fusions are not shown. Lines headed by an entry give the natural chain unless they say otherwise; changes in a name come on top. A line that says so, or that is headed by a name, gives the form on record, which may keep a tag or linker.
HBH-∆F508-CFTR-3HA (P13569, form named): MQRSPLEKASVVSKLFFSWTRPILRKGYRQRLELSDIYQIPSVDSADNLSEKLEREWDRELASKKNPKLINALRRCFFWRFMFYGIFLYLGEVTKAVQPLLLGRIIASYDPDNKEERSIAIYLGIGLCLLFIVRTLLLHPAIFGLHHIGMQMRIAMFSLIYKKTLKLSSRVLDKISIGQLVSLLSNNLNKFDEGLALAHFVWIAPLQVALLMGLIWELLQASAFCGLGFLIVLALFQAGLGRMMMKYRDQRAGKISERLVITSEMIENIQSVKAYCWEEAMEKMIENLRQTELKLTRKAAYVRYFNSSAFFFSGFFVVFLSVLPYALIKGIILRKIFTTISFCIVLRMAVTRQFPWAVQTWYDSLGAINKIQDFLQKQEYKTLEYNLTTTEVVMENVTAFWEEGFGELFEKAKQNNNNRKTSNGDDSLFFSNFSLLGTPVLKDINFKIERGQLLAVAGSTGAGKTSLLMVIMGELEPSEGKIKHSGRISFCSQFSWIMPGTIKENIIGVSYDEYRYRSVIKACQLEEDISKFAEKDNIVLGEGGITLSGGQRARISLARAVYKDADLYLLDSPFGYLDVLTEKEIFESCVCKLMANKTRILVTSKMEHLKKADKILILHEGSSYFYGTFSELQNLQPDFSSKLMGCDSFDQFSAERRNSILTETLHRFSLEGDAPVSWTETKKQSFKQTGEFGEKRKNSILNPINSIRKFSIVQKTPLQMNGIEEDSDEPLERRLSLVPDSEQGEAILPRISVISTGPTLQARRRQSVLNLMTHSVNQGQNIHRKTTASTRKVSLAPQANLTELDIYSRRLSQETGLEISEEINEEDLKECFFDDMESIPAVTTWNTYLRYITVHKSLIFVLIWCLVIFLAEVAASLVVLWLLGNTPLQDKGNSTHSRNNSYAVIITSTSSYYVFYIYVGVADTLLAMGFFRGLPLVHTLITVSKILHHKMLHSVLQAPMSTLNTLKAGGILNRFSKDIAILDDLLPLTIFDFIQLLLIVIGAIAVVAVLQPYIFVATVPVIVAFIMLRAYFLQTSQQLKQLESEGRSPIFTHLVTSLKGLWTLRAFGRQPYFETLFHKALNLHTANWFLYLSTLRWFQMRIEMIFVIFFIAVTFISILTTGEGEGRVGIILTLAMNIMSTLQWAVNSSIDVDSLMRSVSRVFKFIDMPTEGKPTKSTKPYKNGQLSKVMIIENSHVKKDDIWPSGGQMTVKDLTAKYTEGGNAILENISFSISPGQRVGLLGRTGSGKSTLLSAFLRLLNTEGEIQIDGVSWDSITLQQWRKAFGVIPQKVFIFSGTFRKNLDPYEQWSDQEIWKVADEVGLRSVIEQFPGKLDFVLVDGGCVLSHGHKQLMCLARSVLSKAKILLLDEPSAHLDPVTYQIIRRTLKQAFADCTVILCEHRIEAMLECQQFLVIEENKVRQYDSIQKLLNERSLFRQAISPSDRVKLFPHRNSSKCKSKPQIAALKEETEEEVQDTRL
UniProt Q15386: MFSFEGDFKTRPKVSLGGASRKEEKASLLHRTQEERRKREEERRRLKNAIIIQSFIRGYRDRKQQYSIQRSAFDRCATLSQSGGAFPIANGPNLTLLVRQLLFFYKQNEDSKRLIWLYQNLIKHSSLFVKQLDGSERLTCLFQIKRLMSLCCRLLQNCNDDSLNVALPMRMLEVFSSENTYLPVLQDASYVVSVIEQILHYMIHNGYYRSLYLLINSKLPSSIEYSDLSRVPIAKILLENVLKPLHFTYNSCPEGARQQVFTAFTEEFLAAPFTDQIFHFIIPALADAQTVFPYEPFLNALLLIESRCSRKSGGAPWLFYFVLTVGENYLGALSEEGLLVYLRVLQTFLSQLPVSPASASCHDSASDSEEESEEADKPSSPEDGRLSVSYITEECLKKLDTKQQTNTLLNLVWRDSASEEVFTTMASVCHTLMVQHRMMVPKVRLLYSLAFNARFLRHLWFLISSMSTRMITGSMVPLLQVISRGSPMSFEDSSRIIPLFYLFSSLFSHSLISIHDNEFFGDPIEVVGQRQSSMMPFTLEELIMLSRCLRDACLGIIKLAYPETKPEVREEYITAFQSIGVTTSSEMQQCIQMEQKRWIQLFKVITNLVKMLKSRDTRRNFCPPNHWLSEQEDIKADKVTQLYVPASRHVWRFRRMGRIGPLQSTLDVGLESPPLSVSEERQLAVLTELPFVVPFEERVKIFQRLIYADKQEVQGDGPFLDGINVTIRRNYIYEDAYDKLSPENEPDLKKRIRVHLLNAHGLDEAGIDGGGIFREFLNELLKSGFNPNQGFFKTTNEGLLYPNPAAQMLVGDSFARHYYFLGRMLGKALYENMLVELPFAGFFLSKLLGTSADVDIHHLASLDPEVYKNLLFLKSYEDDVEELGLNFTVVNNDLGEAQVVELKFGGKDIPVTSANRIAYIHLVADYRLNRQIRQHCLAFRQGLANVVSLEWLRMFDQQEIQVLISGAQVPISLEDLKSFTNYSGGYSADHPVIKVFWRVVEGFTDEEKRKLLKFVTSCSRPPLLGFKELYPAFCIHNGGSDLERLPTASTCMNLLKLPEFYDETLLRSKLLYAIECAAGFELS

Molecular target: HBH-∆F508-CFTR-3HA (UniProt P13569)
Experiment: pull-down; NeutrAvidin agarose pull-down of HBH-∆F508-CFTR-3HA from lysates of 293MSR WT and RNF5/185 DKO cells transfected with FLAG-His-UBE3C; 2 mM NaB for 1 day, 10 µM MG-132 for 1 h; mild lysis buffer (150 mM NaCl, 20 mM Tris, 0.1% NP-40, pH 7.4), 2 h at 4 °C; Western blotting

binding | Substance
binds | FLAG-His-C1051A-UBE3C (from UniProt Q15386 1-1083) (enzyme)
binds | FLAG-His-UBE3C (from UniProt Q15386 1-1083) (enzyme)
